{
  "sequences": {"note": "By UniProt entry, the sequences of proteins in these tests, tags left out. Residues count along the entry.", "UniProt P0CG63, residues 1-76": "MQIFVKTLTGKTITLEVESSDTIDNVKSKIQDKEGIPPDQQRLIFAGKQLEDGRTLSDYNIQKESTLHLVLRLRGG"},
  "source": "paper doi:10.1101/2021.12.02.470885",
  "key": {"[1]": {"biological_target": "MBP-OtUBD (Orientia tsutsugamushi) (UniProt B3CVM3)", "assay": "pull-down"}, "[2]": {"biological_target": "MBP-OtUBD (Orientia tsutsugamushi) (UniProt B3CVM3)", "assay": "pull-down", "remark": "listed apart in the source"}},
  "note": "Where two headings read alike, the source gives them in different places. No constants are given. Whether binding was seen depends on the method and setting. In cells and extracts the contact can be indirect. Some results given as binding are weak or reduced against the parent protein; the word gives no strength.",
  "data": [
    {"substance": "ubiquitin of yeast lysate (free and conjugated to proteins) (from UniProt P0CG63 1-76)", "values": [
      {"measurement": "binding", "setting": "[1]", "result": "binds"},
      {"measurement": "binding", "setting": "[2]", "result": "binds"}
    ]}
  ]
}
